Source: PubChem BioAssay AID758 (NMMLSC, 2007)
In all, about 190,000 compounds went through this assay and about 110 (0.058%) were called active. The inconclusive results got no clear call from the source; some entries with a clear call stand among them for comparison.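 Rule for the calls: active = fluorescent GTP binding to Rab7 beads changed by at least 20 points from the 100% baseline, either direction, mostly lower; inconclusive = compound itself probably fluorescent, or too few beads counted; inactive = the rest.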

system: Rab7 GTPase wild type (dog), Bodipy-FL-GTP binding; assay: modulators of GTP binding to Rab7, primary screen, biochemical, wildtype, multiplex bead flow cytometry (AID 758); settings: GST-Rab7 beads, fluorescent GTP binding, at 10 µM, actives lie on both sides, untreated = 100%, excess cold GTP = 0%;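 note: median green fluorescence of bound Bodipy-FL-GTP per Rab7 bead population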

Row | Compound | GTP binding activity (percent of control)
1 | Cc1cc(C)n2nc(C(=O)N3CCCC(CNS(=O)(=O)c4cccs4)C3)cc2n1 (configuration not stated) | active: 22%
2 | O=S(=O)(Cc1ccccc1Cl)NCCc1ccccc1 | inactive: 98%
3 | CCc1ccc(NC(=O)c2ccc3ncsc3c2)cc1 | inconclusive: 102%
4 | Clc1ccc2c(c1)CCc1cccnc1C2=C1CCNCC1 | inconclusive: 103%
5 | COc1ccc(Nc2nc3ccc(C)cn3c(=O)c2/C=N/O)cc1 | inconclusive: 96%
6 | CCCCN(C)CCNC(=O)c1ccc(Cn2c(=S)[nH]c3ccc(Br)cc3c2=O)cc1 | inactive: 95%
7 | N#Cc1c(-c2ccccc2Cl)cc(-c2ccccc2)[nH]c1=S | inactive: 104%
8 | CCOCCCNc1nc(=S)[nH]c2cc(OC)c(OC)cc12 | inconclusive: 79%
9 | COc1ccc(S(=O)(=O)Cc2ccc(C(=O)N3CCN(c4cccc(C)c4C)CC3)o2)cc1 | inconclusive: 80%
10 | OC(CNCC1CCCO1)Cn1c2ccc(Cl)cc2c2cc(Cl)ccc21 (configuration not stated) | inconclusive: 103%
11 | O=C(Cn1cc([N+](=O)[O-])cn1)Nc1cccnc1 | inconclusive: 103%
12 | Cn1c(/C=C(\C#N)C(N)=S)ccc1-c1ccc(Br)cc1 | inactive: 91%
13 | COc1ccc2cc(C)c3nnc(SCC(=O)Nc4nc(-c5ccc(F)cc5)cs4)n3c2c1 | inconclusive: 98%
14 | O=C(COc1nc2ccccc2nc1N1CCOCC1)NC1CCCCC1 | inconclusive: 98%
15 | N#C/C(=C/c1ccc(N2CCCCCC2)o1)c1cccc(F)c1 | inconclusive: 114%
16 | CC1CN(c2ccc([N+](=O)[O-])nc2)CC(C)O1 (configuration not stated) | inactive: 105%
17 | O=C(CC(=O)c1ccccc1)Nc1cccnc1Cl | inactive: 101%
18 | CCSc1nnc(NC(=O)[C@@H](NC(=O)c2ccc(C(C)(C)C)cc2)C(C)C)s1 | inactive: 92%
19 | CCN1CCN(c2oc(COc3ccc(-c4ccccc4)cc3)nc2C#N)CC1 | inconclusive: 93%
20 | O=C(O)c1cccnc1SCc1ccccc1Cl | inactive: 115%
21 | CCN(CC)S(=O)(=O)c1ccc2c(c1)c(=O)c(C(=O)NCCN(C)CCc1ccccc1)cn2C | inconclusive: 104%
22 | Cc1noc(N)c1C(=O)Nc1ccc(F)cc1 | inconclusive: 104%
23 | CCOc1cc2nc(-c3ccc(OC)c(OC)c3)nc(NCCCN3CCOCC3)c2cc1OC | inconclusive: 88%
24 | CCOC(=O)C1C2C=CC3(CN(Cc4cccs4)C(=O)C13)O2 (configuration not stated) | inconclusive: 97%

Some of these compounds in order of molecular weight, largest number first.
Row | Compound | GTP binding activity (percent of control)
13 | COc1ccc2cc(C)c3nnc(SCC(=O)Nc4nc(-c5ccc(F)cc5)cs4)n3c2c1 | inconclusive: 98%
15 | N#C/C(=C/c1ccc(N2CCCCCC2)o1)c1cccc(F)c1 | inconclusive: 114%
3 | CCc1ccc(NC(=O)c2ccc3ncsc3c2)cc1 | inconclusive: 102%
20 | O=C(O)c1cccnc1SCc1ccccc1Cl | inactive: 115%

Additional results follow:

Row | Compound | GTP binding activity (percent of control)
25 | COc1ccc(CNC(=O)COC(=O)/C=C/c2ccco2)cc1 | inconclusive: 95%
26 | O=c1c2ccccc2nnn1Cc1ccc(Br)cc1 | inconclusive: 91%
27 | CN1CCN(C(=S)c2cn(CCOc3ccccc3)c3ccccc23)CC1 | inactive: 94%
28 | Cc1occc1C(=O)N/N=C/c1cccs1 | inconclusive: 100%
29 | O=C1NN(c2ccccc2)C(=O)/C1=C/c1ccc(-c2ccc(Cl)c(C(=O)O)c2)o1 | inactive: 93%
30 | CCN(CC)C(=O)c1sc(NC(=O)C(C)C)c(C#N)c1C | inactive: 100%
31 | COc1ccc(S(=O)(=O)NCC2CCCN(CC(C)(C)C)C2)cc1 (configuration not stated) | inactive: 102%
32 | O=C(Nc1ccc(CCC(=O)N2CCCC2)cc1)c1ncn[nH]1 | inconclusive: 101%
33 | COc1cc2nc(=S)n(CCCN3CCOCC3)c(N)c2cc1OC | inconclusive: 78%
34 | Cc1ccc(NC(=O)CCCc2nc3ccccc3s2)c(O)c1 | inconclusive: 95%
35 | O=C1CS/C(=C\S(=O)(=O)c2ccc(Cl)cc2)N1 | inconclusive: 102%
36 | COc1ccc(-c2cc(-c3ccc(O)cc3)nc(N)c2C#N)cc1OC | inactive: 83%
37 | Cc1cc(OC(=O)c2ccc3ccccc3c2)c([N+](=O)[O-])c(=O)[nH]1 | inconclusive: 94%
38 | Cc1cc(C)nc(N(C#N)Cc2ccc([N+](=O)[O-])cc2)n1 | inconclusive: 93%
39 | O=C(O)CCc1ccc(-c2cccs2)n1CC(=O)Nc1ccccc1C(F)(F)F | inactive: 95%
40 | O=C(CCN1CCCC1Cc1ccccc1)c1ccc2c(c1)OCCO2 (configuration not stated) | inactive: 90%
41 | O=C(NCCCn1ccnc1)c1cc2c(ccc3ccccc32)o1 | inactive: 100%
42 | O=c1c2ccccc2nnn1CSc1ccc2c(c1)OCCO2 | inconclusive: 109%
43 | CCOc1ccc(C(C)NC(=O)c2cccc(F)c2)cc1 (configuration not stated) | inactive: 98%
44 | CCCN1C(=O)C(Cc2nc3ccccc3c(=O)n2C)c2ccccc21 (configuration not stated) | inconclusive: 100%
45 | CCOC(=O)NC(=O)CSc1ccccn1 | inconclusive: 96%
46 | O=c1c2sccc2nc(SCc2cc(=O)n3cc(Cl)ccc3n2)n1Cc1ccccn1 | inconclusive: 99%
47 | N#C/C(=C\c1ccncc1)c1nc2ccccc2[nH]1 | active: 26%
